The targets with a hit were mostly taken out for another list; the other results follow. Single values of this set are uncertain. Only a part is listed here, and it is no random draw.
Compound: COC(=O)/C=C/c1ccccc1 [methyl cinnamate]
Test: log2 ratio of iodoacetamide-alkyne labeling of the cysteine site, DMSO over compound (competition); higher = stronger covalent engagement of the cysteine by the compound, active = 1 or more
Settings: 500 µM; treatment time 1 h; system: HEK293T cell lysate
How it was run: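 Reporter intensities give each cysteine's log2 competition ratio as the mean of control channels over the mean of compound channels. The samples were HEK293T lysate (2 mg/mL) given vehicle or electrophile (500 µM, 1 h, ambient temperature), then iodoacetamide alkyne (1 h), followed by click coupling to sCIP-TMT reagents, pooling, trypsin digestion overnight at 37 °C, streptavidin enrichment, acid elution, Orbitrap Eclipse LC-MS/MS with FAIMS and FragPipe quantification. Duplicate channels and three replicates were run, and cysteines quantified in only one replicate were discarded.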

The chains behind the UniProt entries cited, without tags or fusion partners. Where a name states a change or a piece, a line headed by the entry shows the natural chain unless it says otherwise.
UniProt Q14692: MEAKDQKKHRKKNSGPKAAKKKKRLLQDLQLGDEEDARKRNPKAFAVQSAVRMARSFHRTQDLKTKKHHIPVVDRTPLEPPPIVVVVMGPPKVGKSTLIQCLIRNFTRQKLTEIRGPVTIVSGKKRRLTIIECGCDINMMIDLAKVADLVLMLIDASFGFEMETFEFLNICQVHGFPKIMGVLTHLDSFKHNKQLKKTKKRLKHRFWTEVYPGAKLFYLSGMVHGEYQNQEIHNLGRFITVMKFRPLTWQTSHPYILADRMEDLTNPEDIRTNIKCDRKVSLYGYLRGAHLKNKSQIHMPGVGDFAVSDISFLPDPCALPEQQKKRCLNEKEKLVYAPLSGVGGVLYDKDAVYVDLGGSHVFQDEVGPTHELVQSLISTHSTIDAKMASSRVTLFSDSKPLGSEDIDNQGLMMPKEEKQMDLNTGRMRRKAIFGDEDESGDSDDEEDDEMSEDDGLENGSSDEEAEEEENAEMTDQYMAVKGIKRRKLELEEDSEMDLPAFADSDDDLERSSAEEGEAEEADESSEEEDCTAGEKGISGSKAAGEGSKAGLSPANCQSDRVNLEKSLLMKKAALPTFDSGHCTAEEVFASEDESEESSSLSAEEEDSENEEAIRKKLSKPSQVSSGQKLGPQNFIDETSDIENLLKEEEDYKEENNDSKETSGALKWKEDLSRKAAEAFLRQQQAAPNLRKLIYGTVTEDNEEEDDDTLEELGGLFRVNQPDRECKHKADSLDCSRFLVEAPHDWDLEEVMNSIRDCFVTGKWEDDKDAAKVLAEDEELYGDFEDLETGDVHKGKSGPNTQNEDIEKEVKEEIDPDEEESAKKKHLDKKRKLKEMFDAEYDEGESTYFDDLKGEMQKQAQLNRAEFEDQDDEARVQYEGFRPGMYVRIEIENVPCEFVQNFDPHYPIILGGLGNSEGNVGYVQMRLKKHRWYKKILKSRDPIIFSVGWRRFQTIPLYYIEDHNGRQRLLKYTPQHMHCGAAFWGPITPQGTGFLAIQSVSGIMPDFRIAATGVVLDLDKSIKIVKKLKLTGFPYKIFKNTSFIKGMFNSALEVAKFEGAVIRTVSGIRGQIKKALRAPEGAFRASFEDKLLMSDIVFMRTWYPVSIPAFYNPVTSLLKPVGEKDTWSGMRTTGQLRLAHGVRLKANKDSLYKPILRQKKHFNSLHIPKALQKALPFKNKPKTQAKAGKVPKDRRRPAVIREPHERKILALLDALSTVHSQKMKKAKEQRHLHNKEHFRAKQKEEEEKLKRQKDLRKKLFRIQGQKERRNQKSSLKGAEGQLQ
UniProt Q14980: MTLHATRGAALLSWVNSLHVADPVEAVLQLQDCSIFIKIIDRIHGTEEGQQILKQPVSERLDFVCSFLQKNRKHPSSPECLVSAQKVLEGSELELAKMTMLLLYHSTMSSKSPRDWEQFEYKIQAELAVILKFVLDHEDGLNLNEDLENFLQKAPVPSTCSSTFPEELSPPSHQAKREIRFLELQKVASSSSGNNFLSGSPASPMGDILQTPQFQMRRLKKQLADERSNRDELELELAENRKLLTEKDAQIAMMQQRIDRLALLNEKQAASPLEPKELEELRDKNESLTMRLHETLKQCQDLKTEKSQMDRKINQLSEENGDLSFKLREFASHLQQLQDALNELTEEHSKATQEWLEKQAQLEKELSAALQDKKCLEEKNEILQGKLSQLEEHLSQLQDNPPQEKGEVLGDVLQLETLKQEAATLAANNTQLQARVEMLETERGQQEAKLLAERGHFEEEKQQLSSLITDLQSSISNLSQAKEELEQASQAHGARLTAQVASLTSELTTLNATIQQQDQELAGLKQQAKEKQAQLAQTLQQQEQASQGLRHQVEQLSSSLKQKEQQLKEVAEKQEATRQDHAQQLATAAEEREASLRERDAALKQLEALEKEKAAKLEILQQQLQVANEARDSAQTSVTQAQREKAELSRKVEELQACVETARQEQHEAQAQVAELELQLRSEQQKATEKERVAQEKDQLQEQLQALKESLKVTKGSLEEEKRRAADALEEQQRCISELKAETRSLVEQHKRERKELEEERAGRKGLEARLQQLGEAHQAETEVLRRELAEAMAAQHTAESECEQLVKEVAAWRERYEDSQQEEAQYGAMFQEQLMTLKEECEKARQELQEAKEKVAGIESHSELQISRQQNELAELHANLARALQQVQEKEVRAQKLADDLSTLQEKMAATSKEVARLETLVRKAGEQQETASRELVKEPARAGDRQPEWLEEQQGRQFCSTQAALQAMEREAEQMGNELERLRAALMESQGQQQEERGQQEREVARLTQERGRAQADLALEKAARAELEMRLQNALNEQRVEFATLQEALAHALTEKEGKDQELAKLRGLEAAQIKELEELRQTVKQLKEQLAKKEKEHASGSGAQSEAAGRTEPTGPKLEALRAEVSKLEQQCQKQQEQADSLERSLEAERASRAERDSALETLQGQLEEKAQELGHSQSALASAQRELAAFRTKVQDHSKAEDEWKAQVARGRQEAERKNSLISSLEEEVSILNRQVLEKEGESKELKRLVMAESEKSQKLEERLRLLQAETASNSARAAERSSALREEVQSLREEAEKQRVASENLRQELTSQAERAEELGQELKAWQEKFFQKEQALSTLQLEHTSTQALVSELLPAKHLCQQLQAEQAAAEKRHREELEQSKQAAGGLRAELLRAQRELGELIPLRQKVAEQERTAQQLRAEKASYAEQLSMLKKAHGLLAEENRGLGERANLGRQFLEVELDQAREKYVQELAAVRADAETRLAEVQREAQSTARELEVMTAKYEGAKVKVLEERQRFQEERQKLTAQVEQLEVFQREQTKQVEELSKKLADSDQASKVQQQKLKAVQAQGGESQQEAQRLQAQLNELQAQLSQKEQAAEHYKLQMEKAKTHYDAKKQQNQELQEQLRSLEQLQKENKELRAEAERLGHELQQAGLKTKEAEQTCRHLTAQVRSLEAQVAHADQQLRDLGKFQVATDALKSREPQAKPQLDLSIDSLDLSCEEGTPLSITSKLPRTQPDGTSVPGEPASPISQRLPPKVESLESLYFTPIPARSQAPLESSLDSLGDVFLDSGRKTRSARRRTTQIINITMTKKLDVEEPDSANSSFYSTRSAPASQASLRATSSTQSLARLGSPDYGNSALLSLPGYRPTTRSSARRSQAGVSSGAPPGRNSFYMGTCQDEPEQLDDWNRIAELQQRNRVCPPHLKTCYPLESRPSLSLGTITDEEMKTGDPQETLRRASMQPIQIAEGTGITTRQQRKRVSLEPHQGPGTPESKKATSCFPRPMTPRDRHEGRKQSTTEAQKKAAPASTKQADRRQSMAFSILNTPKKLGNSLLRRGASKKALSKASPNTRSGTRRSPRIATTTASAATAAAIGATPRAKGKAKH
UniProt Q14008: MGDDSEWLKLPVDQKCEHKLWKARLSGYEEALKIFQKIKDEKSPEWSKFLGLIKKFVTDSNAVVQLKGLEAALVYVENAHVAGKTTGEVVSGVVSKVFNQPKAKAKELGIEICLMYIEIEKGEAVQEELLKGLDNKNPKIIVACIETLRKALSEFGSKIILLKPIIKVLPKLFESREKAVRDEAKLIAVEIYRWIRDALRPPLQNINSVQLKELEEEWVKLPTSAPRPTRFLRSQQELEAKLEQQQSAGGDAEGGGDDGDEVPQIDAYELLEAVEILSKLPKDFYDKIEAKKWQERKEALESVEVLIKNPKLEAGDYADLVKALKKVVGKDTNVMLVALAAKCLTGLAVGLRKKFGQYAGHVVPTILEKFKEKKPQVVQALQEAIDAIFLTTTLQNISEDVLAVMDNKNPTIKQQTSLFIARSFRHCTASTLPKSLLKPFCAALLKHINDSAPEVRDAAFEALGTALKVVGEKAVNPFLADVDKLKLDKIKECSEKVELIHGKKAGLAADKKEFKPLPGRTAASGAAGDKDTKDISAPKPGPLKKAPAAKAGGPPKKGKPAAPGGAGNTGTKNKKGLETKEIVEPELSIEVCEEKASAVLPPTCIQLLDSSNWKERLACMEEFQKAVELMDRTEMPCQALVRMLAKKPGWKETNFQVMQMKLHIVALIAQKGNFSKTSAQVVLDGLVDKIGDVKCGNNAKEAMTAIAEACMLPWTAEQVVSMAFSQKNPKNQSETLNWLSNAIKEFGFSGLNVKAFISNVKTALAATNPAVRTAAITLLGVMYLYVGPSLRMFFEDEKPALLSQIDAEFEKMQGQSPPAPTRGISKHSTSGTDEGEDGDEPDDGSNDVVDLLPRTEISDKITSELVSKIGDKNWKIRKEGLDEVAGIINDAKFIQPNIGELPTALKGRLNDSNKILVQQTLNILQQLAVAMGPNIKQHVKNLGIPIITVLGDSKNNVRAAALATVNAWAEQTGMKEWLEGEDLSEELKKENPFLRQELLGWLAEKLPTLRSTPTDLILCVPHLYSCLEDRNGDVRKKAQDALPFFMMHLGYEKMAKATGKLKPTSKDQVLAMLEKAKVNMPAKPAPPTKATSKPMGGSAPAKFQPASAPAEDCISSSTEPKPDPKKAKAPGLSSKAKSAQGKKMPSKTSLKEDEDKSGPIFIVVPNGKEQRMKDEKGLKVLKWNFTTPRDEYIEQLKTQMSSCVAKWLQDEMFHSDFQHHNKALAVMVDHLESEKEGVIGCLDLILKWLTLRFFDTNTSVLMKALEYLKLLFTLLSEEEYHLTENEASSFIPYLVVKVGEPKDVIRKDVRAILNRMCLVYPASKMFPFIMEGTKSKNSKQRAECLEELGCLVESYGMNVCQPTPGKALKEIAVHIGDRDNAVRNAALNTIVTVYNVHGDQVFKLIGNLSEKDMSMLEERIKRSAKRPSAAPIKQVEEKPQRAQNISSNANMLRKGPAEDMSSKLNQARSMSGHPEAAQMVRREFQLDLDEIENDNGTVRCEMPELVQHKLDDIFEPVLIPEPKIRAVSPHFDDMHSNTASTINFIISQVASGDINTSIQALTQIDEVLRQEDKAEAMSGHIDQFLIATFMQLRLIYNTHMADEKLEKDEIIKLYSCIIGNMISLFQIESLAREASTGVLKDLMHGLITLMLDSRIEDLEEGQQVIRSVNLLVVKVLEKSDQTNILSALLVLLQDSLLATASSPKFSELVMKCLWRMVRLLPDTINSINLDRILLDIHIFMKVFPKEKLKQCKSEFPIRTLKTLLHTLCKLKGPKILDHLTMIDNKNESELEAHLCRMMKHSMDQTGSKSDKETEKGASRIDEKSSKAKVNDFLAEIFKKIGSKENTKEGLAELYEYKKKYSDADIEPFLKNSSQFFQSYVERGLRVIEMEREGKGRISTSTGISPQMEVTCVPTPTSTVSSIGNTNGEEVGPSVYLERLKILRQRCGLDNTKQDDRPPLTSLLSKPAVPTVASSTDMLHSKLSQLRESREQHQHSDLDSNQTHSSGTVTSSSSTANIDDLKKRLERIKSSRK
UniProt Q15003, whole entry, looked up: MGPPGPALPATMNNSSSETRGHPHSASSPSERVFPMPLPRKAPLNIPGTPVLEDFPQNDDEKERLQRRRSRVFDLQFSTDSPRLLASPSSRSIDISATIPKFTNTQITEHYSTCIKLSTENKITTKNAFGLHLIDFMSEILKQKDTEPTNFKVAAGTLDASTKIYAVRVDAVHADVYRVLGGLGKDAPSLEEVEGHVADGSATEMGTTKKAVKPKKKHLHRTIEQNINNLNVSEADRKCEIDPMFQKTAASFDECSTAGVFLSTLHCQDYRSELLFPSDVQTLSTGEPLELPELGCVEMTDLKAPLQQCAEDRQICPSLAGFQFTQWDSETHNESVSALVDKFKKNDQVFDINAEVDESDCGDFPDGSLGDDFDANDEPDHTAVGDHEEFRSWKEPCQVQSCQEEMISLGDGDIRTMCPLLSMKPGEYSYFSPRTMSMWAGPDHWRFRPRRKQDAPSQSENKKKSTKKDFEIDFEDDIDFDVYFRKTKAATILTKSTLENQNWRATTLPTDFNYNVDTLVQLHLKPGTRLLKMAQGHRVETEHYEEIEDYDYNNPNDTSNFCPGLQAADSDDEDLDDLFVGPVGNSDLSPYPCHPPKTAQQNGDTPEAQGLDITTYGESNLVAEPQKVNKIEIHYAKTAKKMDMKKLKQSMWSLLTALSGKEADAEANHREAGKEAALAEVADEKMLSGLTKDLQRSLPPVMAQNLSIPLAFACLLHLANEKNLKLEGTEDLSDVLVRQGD
UniProt Q15007: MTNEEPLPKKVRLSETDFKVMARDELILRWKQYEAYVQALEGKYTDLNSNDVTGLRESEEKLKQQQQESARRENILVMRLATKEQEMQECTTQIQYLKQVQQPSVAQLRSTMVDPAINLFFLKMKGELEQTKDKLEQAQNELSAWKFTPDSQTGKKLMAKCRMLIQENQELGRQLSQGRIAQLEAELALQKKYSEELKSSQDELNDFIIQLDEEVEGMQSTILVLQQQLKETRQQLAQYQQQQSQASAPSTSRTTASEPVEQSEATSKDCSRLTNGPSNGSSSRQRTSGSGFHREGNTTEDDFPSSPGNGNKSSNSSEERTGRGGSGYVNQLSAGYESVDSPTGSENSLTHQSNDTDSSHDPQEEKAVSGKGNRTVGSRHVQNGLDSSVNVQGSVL

log2 ratio of iodoacetamide-alkyne labeling, inactive:
BOP1 C404 (UniProt Q14137) 0.072
KPNB1 C817 (UniProt Q14974) 0.588
BMS1 C101 (UniProt Q14692) 0.144
NUMA1 C299 (UniProt Q14980) 0.0666
CKAP5 C1911 (UniProt Q14008) 0.132
MTMR2 C95 (UniProt Q13614) -0.0372
TRIP12 C35 (UniProt Q14669) 0.0685
MORC3 C632 (UniProt Q14149) 0.515
DCTN2 C240 (UniProt Q13561) 0.262
BMS1 C725 (UniProt Q14692) 0.403
DGKZ C540 (UniProt Q13574) -0.175
DYNC1H1 C2142 (UniProt Q14204) 0.442
TUBB3 C124 (UniProt Q13509) 0.223
ZNF638 C1654 (UniProt Q14966) 0.127
UniProt Q14141_C432 0.256
SPTAN1 C2233 (UniProt Q13813) 0.0554
SPTAN1 C315 (UniProt Q13813) 0.131
CKAP5 C441 (UniProt Q14008) 0.203
NCAPH C402 (UniProt Q15003) 0.237
NUMA1 C2009 (UniProt Q14980) 0.483
EIF3A C198 (UniProt Q14152) 0.243
BMS1 C556 (UniProt Q14692) 0.394
GNL2 C362 (UniProt Q13823) -0.182
UniProt Q13885_C239 0.0467
UniProt Q14004_C987 -0.0425
POLA2 C392 (UniProt Q14181) 0.157
BLMH C73 (UniProt Q13867) 0.184
RRP1B C628 (UniProt Q14684) 0.496
NCAPH C239 (UniProt Q15003) 0.179
NUMA1 C80 (UniProt Q14980) 0.135
CKAP5 C1019 (UniProt Q14008) 0.0818
CHD4 C1827 (UniProt Q14839) 0.2
PEX6 C798 (UniProt Q13608) 0.0135
POLA2 C198 (UniProt Q14181) 0.223
MTMR3 C826 (UniProt Q13615) 0.0328
WTAP C270 (UniProt Q15007) 0.61
DCTN1 C636 (UniProt Q14203) 0.473
SART3 C670 (UniProt Q15020) 0.329

Quoted at random: 2 records from the list, in no set order.
log2 ratio of iodoacetamide-alkyne labeling, inactive:
TUBB3 C124 (UniProt Q13509) 0.223
NCAPH C239 (UniProt Q15003) 0.179

From the supplement of paper PMC11006884
